Experimental data: the supplement of paper PMC10849652
This is one part of the list.

Chains of the proteins cited; added tags and fusions are not shown. Lines headed by an entry give the natural chain unless they say otherwise; changes in a name come on top.
UniProt Q93084: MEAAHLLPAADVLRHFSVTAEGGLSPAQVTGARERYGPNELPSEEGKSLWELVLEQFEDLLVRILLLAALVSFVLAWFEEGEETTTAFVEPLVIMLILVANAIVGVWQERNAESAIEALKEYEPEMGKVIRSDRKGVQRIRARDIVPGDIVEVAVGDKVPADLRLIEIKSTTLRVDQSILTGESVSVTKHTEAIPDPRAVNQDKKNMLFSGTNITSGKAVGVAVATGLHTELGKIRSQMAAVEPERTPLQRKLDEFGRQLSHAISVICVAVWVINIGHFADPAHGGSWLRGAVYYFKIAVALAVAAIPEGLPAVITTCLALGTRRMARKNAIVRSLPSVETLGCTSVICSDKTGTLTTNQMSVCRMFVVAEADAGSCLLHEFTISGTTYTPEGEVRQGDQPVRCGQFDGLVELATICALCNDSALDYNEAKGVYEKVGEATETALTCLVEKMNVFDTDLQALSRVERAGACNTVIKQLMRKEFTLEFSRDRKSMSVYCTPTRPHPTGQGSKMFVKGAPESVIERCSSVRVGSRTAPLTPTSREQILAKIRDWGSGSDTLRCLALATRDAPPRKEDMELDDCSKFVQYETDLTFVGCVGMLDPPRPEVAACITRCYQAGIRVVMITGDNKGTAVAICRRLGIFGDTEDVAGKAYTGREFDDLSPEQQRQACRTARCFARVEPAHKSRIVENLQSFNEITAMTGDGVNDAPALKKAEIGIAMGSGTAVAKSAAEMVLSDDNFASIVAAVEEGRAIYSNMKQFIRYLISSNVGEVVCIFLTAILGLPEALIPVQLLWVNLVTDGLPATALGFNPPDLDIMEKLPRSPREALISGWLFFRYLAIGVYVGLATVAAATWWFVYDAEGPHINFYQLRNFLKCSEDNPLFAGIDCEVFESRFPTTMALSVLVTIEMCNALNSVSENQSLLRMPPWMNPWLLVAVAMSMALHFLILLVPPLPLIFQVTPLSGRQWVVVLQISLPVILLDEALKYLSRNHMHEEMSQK
UniProt Q8NBF6: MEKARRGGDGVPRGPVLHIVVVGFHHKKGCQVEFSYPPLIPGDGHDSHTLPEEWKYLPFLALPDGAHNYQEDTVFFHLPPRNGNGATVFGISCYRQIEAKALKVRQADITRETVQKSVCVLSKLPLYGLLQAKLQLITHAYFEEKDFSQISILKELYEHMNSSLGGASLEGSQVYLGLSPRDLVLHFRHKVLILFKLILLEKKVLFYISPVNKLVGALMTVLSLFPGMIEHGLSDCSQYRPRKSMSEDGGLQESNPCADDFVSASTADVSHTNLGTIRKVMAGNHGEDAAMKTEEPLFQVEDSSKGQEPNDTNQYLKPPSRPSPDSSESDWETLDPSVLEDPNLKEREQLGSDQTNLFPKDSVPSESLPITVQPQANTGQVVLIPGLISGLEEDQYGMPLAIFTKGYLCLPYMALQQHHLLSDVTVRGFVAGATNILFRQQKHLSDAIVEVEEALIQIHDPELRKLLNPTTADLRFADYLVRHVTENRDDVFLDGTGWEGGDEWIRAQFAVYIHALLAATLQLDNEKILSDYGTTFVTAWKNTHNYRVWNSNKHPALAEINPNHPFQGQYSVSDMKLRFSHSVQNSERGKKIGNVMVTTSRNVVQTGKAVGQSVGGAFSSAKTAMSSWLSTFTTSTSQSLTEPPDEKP
UniProt Q9Y294, whole entry, looked up: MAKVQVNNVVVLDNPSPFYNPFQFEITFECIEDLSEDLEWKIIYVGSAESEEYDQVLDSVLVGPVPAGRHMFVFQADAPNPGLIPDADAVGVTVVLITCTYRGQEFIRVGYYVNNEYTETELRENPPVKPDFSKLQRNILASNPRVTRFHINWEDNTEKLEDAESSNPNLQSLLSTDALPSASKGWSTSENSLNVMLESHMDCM
UniProt Q13315: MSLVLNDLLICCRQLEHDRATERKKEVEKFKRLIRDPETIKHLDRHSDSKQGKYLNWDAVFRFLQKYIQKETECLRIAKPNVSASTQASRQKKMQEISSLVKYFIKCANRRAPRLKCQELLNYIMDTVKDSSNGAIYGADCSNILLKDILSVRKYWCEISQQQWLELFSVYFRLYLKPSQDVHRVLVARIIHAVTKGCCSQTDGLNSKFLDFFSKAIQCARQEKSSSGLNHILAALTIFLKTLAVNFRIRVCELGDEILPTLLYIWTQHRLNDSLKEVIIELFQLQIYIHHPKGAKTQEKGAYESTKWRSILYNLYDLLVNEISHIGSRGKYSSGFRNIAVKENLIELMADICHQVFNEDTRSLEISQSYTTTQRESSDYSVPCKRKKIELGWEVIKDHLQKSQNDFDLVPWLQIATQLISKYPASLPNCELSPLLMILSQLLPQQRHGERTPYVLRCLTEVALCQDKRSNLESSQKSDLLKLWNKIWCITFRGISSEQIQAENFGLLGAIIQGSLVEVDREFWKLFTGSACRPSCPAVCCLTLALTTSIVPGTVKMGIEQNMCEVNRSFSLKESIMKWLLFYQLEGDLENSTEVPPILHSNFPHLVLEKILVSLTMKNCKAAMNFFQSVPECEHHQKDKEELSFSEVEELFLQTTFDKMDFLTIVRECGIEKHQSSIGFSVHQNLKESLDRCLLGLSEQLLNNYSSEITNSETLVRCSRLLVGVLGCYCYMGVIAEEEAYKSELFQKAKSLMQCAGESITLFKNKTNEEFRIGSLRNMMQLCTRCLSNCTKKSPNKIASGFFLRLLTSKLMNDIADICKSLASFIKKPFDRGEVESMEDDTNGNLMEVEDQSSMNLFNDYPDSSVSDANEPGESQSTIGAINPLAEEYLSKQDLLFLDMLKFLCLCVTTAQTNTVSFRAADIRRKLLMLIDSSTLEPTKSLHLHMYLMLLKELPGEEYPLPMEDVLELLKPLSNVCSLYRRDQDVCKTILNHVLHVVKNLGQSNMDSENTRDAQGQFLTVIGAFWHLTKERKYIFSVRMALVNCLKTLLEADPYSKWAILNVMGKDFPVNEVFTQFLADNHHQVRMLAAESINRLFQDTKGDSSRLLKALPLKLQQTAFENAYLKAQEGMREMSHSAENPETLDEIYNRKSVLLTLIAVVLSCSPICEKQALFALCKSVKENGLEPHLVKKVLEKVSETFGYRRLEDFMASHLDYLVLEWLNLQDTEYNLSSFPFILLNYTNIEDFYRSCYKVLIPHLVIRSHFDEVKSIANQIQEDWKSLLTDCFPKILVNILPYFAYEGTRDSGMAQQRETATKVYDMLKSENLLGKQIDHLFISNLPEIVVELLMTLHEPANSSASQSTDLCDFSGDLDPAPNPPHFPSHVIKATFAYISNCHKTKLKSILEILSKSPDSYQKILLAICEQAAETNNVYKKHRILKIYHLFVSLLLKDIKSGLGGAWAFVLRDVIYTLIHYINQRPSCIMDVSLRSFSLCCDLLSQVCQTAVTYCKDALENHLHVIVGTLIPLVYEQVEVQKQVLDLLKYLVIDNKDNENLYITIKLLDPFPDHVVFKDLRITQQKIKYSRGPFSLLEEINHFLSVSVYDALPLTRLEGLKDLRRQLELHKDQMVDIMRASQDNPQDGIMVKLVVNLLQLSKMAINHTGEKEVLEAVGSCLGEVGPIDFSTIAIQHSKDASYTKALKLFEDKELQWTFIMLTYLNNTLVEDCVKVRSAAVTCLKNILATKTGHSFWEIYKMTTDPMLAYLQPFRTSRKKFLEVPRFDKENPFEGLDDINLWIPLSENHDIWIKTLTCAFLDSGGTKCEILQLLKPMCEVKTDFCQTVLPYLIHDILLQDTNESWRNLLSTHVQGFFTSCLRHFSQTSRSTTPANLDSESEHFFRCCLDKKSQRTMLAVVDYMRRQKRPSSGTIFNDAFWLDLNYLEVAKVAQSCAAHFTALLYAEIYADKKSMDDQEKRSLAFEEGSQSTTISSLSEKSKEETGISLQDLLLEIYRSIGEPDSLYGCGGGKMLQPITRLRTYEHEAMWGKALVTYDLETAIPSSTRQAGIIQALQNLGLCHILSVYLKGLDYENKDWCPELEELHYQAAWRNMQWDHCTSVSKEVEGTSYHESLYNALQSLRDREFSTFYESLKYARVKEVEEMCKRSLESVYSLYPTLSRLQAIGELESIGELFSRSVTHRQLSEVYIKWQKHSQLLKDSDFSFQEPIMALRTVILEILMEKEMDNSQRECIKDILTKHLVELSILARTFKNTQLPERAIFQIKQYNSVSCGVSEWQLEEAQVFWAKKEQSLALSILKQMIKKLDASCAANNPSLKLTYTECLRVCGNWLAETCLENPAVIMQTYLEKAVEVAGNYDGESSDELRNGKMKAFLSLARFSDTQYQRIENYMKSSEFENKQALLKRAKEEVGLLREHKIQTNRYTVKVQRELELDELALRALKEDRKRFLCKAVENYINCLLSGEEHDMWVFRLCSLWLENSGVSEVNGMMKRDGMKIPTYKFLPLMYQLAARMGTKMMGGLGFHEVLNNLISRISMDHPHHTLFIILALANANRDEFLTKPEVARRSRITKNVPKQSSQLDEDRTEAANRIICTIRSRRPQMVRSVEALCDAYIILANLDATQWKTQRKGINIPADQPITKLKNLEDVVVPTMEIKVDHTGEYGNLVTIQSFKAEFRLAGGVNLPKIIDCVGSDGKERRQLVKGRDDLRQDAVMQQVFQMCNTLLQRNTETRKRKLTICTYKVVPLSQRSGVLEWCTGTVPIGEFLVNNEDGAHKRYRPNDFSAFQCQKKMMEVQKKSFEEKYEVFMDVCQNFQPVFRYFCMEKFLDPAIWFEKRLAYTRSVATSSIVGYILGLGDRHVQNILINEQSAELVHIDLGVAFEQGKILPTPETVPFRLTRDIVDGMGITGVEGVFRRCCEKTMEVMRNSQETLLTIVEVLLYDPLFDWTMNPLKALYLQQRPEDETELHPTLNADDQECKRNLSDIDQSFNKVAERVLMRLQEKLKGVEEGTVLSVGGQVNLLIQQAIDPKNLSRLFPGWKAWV
UniProt O94766: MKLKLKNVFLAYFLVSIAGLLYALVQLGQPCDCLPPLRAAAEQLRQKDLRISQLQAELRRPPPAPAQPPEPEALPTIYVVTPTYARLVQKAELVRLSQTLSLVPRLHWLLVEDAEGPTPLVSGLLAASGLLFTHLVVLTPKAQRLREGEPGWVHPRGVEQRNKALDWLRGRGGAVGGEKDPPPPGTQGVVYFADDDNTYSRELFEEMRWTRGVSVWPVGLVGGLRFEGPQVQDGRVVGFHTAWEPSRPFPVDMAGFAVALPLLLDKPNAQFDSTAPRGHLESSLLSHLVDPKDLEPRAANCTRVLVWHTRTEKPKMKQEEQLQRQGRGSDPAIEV
UniProt O75964: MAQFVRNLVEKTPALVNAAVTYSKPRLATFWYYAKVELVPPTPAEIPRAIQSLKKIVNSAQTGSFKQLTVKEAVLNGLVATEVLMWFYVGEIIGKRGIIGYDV
UniProt Q12797: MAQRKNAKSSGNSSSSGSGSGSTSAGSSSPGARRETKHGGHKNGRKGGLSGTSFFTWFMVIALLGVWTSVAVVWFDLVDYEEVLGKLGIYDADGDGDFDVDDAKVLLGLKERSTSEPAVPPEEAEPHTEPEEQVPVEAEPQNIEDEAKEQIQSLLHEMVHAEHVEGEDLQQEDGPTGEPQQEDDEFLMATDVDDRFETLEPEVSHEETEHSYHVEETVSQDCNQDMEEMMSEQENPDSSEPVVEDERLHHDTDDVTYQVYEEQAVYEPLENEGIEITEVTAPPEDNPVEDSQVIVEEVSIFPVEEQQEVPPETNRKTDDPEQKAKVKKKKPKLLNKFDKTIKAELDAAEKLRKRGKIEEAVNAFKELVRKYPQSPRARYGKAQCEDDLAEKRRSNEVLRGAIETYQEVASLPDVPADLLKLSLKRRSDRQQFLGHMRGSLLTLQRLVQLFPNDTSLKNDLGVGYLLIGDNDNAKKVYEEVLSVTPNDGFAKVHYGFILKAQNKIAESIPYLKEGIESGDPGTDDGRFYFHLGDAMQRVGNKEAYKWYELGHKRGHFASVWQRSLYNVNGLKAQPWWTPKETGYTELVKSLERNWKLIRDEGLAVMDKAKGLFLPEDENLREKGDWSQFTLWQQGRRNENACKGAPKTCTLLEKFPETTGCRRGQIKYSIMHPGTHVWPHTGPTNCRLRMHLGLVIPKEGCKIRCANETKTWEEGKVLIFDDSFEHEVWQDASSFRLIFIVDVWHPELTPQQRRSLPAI
UniProt Q9UBB4: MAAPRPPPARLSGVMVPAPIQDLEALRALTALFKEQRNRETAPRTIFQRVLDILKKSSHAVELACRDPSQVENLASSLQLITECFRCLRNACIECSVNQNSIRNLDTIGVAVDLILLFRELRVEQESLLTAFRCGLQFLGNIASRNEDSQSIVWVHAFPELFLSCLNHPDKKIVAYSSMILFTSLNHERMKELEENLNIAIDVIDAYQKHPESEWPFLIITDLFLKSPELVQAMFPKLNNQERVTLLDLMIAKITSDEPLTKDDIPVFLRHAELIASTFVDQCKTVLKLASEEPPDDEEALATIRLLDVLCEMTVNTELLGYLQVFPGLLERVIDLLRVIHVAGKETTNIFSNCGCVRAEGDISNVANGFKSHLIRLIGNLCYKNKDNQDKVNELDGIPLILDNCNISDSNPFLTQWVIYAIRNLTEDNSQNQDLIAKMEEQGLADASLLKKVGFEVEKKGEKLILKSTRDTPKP

Experiments:
Assay in all cases: log2 fold change, soluble protein after heating vs DMSO (PISA); higher = thermal stabilisation; K562 lysate, 10 uM; active = over 0.2 and 3.5 SD of the protein, either way, in both replicates (recomputed)
[1] = compound: CCCS(=O)(=O)Nc1ccc(F)c(C(=O)c2c[nH]c3ncc(-c4ccc(Cl)cc4)cc23)c1F [vemurafenib]
Procedure, shortened: (§1)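 A 30 min treatment with 10 μM compound was applied to crude K562 extract at 1 mg/mL protein in PBS pH 7.4 with 1 mM MgCl2. Heating for 3 min spanned 48°C-58°C, after which aliquots were pooled, adjusted to 0.5% NP-40 at 4°C and spun at 21,000xg for 90 min. TMTpro 16plex LC-MS/MS of the supernatant, with channel sums equalised, gave values recorded as log-two fold change in thermal stability against solvent controls, from duplicates.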

[2] = compound: CCCS(=O)(=O)Nc1ccc(F)c(C(=O)c2c[nH]c3ncc(Cl)cc23)c1F
Procedure, shortened: as §1

[3] = compound: CCN(CCCOc1ccc2c(Nc3cc(CC(=O)Nc4cccc(F)c4)[nH]n3)ncnc2c1)CCOP(=O)(O)O [barasertib]
Procedure, shortened: as §1

[4] = compound: CC[C@@H]1C(=O)N(C)c2cnc(Nc3ccc(C(=O)NC4CCN(C)CC4)cc3OC)nc2N1C1CCCC1
Procedure, shortened: as §1

[5] = compound: CC[C@@H]1C(=O)N(C)c2cnc(Nc3ccc(C(=O)N[C@H]4CC[C@H](N5CCN(CC6CC6)CC5)CC4)cc3OC)nc2N1C(C)C [volasertib]
Procedure, shortened: as §1

[6] = compound: CCn1c(C(=O)N(C2CC2)C2CC2)cc2c3c(ncn3C)c(Nc3cc(C)n(C)n3)nc21
Procedure, shortened: as §1

[7] = compound: CCn1cc(-c2ccnc3[nH]c(-c4cccc(CN(C)C)c4)cc23)c(-c2ccc(NC(=O)N(C)C)cc2)n1
Procedure, shortened: as §1

[8] = compound: CN1CCC(CNc2ccc3ncc(-c4cccc(OC(F)(F)F)c4)n3n2)CC1
Procedure, shortened: as §1

[9] = compound: CN1CCN(CCOc2cc(OC3CCOCC3)c3c(Nc4c(Cl)ccc5c4OCO5)ncnc3c2)CC1 [saracatinib]
Procedure, shortened: as §1

[10] = compound: CN1CCN(c2nc(C3=C(c4c[nH]c5ccccc45)C(=O)NC3=O)c3ccccc3n2)CC1 [sotrastaurin]
Procedure, shortened: as §1

Row | Target | log2 fold change [1] | log2 fold change [2] | log2 fold change [3] | log2 fold change [4] | log2 fold change [5] | log2 fold change [6] | log2 fold change [7] | log2 fold change [8] | log2 fold change [9] | log2 fold change [10]
1 | ATG16L1 (UniProt Q676U5) | inactive: 0.008 | inactive: 0.009 | inactive: 0.002 | inactive: 0.01 | inactive: 0.025 | inactive: 0.015 | inactive: 0.054 | inactive: 0.027 | inactive: 0.01 | inactive: 0.026
2 | ATP2A3 isoform 2 (UniProt Q93084) | inactive: 0.013 | inactive: 0.012 | inactive: 0.028 | inactive: -0.039 | inactive: -0.06 | inactive: -0.016 | inactive: 0.02 | inactive: -0.173 | inactive: -0.035 | inactive: 0.028
3 | AVL9 (UniProt Q8NBF6) | inactive: 0.007 | inactive: 0.037 | inactive: -0.006 | inactive: 0.052 | inactive: 0.003 | inactive: -0.011 | inactive: -0.1 | inactive: 0.123 | inactive: 0.017 | inactive: 0.022
4 | AXIN1 (UniProt O15169) | inactive: -0.158 | inactive: 0.091 | inactive: 0.1 | inactive: 0.043 | inactive: -0.057 | inactive: 0.042 | inactive: -0.107 | inactive: 0.085 | inactive: -0.078 | inactive: -0.11
5 | ASF1A (UniProt Q9Y294) | inactive: -0.06 | inactive: -0.003 | inactive: -0.064 | inactive: -0.013 | inactive: -0.02 | inactive: 0.05 | inactive: 0.016 | inactive: 0.06 | inactive: 0.011 | inactive: -0.006
6 | ATM (UniProt Q13315) | inactive: -0.063 | inactive: -0.004 | inactive: 0.041 | inactive: 0.005 | inactive: -0.078 | inactive: 0.021 | inactive: -0.089 | inactive: 0.071 | inactive: -0.011 | inactive: 0.032
7 | B3GAT3 (UniProt O94766) | inactive: -0.018 | inactive: -0.001 | inactive: 0.04 | inactive: 0.049 | inactive: -0.058 | inactive: 0.062 | inactive: -0.013 | inactive: -0.001 | inactive: 0.094 | inactive: 0.009
8 | ATP6V1C1 (UniProt P21283) | inactive: -0.054 | inactive: -0.006 | inactive: 0.007 | inactive: -0.036 | inactive: 0.003 | inactive: -0.004 | inactive: 0.015 | inactive: -0.013 | inactive: -0.008 | inactive: -0.021
9 | ATP6V0A1 isoform 3 (UniProt Q93050) | inactive: 0.019 | inactive: -0.004 | inactive: 0.023 | inactive: -0.02 | inactive: 0.011 | inactive: -0.013 | inactive: -0.071 | inactive: 0.095 | inactive: -0.031 | inactive: -0.045
10 | AZGP1 (UniProt P25311) | inactive: -0.011 | inactive: -0.267 | inactive: -0.211 | inactive: 0 | inactive: -0.238 | inactive: -0.059 | inactive: 0.217 | inactive: -0.142 | inactive: 0.117 | inactive: -0.177
11 | ATP6V1B1 (UniProt P15313) | inactive: -0.009 | inactive: -0.013 | inactive: -0.012 | inactive: 0.016 | inactive: 0.03 | inactive: 0.006 | active: -0.288 | inactive: 0.158 | inactive: -0.006 | inactive: 0.006
12 | ATP5MG (UniProt O75964) | inactive: 0.028 | inactive: 0.001 | inactive: 0.029 | inactive: -0.005 | inactive: 0.035 | inactive: -0.002 | inactive: -0.092 | inactive: 0.014 | inactive: 0.039 | inactive: -0.047
13 | ATP13A3 (UniProt Q9H7F0) | inactive: -0.008 | inactive: 0.04 | inactive: -0.003 | inactive: 0.042 | inactive: 0 | inactive: 0.021 | inactive: -0.166 | inactive: -0.022 | inactive: 0.007 | inactive: 0.035
14 | ATN1 (UniProt P54259) | inactive: 0.006 | inactive: -0.063 | inactive: 0.072 | inactive: 0.105 | inactive: -0.053 | inactive: -0.043 | inactive: -0.039 | inactive: 0.091 | inactive: -0.004 | inactive: 0.008
15 | ASCC3 (UniProt Q8N3C0) | inactive: 0.103 | inactive: 0.018 | inactive: 0.052 | inactive: -0.007 | inactive: -0.024 | inactive: 0.01 | inactive: -0.098 | inactive: -0.003 | inactive: 0.005 | inactive: 0.028
16 | ATP6V1H (UniProt Q9UI12) | inactive: 0.003 | inactive: -0.015 | inactive: -0.028 | inactive: 0.02 | inactive: -0.001 | inactive: 0.017 | inactive: -0.075 | inactive: 0.017 | inactive: -0.001 | inactive: 0.016
17 | ATP7A isoform 3 (UniProt Q04656) | inactive: -0.032 | inactive: 0.002 | inactive: 0.025 | inactive: 0.041 | inactive: -0.004 | inactive: -0.009 | inactive: -0.012 | inactive: 0.032 | inactive: 0.017 | inactive: 0.028
18 | ATP6AP1 (UniProt Q15904) | inactive: -0.017 | inactive: -0.007 | inactive: -0.072 | inactive: -0.039 | inactive: 0.022 | inactive: -0.051 | inactive: -0.109 | inactive: 0.097 | inactive: 0.005 | inactive: 0.017
19 | ASPSCR1 (UniProt Q9BZE9) | inactive: -0.029 | inactive: 0.003 | inactive: 0.018 | inactive: 0.019 | inactive: -0.029 | inactive: -0.004 | inactive: 0.019 | inactive: 0.001 | inactive: 0.009 | inactive: 0.02
20 | ATP9B (UniProt O43861) | inactive: -0.046 | inactive: 0.02 | inactive: -0.024 | inactive: -0.081 | inactive: -0.051 | inactive: -0.015 | inactive: -0.07 | inactive: 0.189 | inactive: 0.046 | inactive: -0.071
21 | ASB6 (UniProt Q9NWX5) | inactive: -0.249 | inactive: -0.039 | inactive: 0.109 | active: 0.651 | inactive: -0.026 | inactive: -0.002 | inactive: 0.182 | inactive: 0.075 | inactive: -0.05 | inactive: -0.01
22 | ATP6V0C (UniProt P27449) | inactive: -0.033 | inactive: 0.026 | inactive: -0.062 | inactive: 0.024 | inactive: 0.031 | inactive: -0.048 | inactive: -0.052 | inactive: 0.181 | inactive: -0.026 | inactive: 0.005
23 | ATF7IP isoform 4 (UniProt Q6VMQ6) | inactive: -0.045 | inactive: 0.051 | inactive: -0.042 | inactive: 0.033 | inactive: -0.018 | inactive: -0.021 | inactive: 0.086 | inactive: -0.037 | inactive: 0.029 | inactive: 0.027
24 | ASH2L (UniProt Q9UBL3) | inactive: 0.003 | inactive: -0.003 | inactive: 0.008 | inactive: -0.001 | inactive: -0.009 | inactive: 0.038 | inactive: -0.051 | inactive: 0.029 | inactive: 0.002 | inactive: 0.015
25 | ASPH (UniProt Q12797) | inactive: 0.009 | inactive: 0.009 | inactive: -0.001 | inactive: 0.03 | inactive: 0.002 | inactive: -0.018 | inactive: 0.011 | inactive: -0.024 | inactive: 0.055 | inactive: 0.01
26 | ATP1A4 (UniProt Q13733) | inactive: -0.036 | inactive: 0 | inactive: -0.021 | inactive: -0.045 | inactive: 0.002 | inactive: 0.016 | inactive: -0.024 | inactive: 0.08 | inactive: -0.023 | inactive: -0.023
27 | ASNA1 (UniProt O43681) | inactive: -0.055 | inactive: 0.005 | inactive: -0.009 | inactive: -0.086 | inactive: -0.02 | inactive: 0.034 | inactive: -0.071 | inactive: 0.01 | inactive: 0.018 | inactive: -0.015
28 | ATP23 (UniProt Q9Y6H3) | inactive: 0.03 | inactive: 0.031 | inactive: 0.062 | inactive: 0.022 | inactive: 0.008 | inactive: 0.077 | inactive: 0.162 | inactive: -0.251 | inactive: 0.057 | inactive: 0.038
29 | ATXN10 (UniProt Q9UBB4) | inactive: 0.002 | inactive: 0.004 | inactive: -0.017 | inactive: 0 | inactive: -0.018 | inactive: -0.017 | inactive: 0.055 | inactive: -0.028 | inactive: -0.009 | inactive: 0.003

Retrieved one by one from above, 2 records:
Row | Target | log2 fold change [1] | log2 fold change [2] | log2 fold change [3] | log2 fold change [4] | log2 fold change [5] | log2 fold change [6] | log2 fold change [7] | log2 fold change [8] | log2 fold change [9] | log2 fold change [10]
15 | ASCC3 (UniProt Q8N3C0) | inactive: 0.103 | inactive: 0.018 | inactive: 0.052 | inactive: -0.007 | inactive: -0.024 | inactive: 0.01 | inactive: -0.098 | inactive: -0.003 | inactive: 0.005 | inactive: 0.028
12 | ATP5MG (UniProt O75964) | inactive: 0.028 | inactive: 0.001 | inactive: 0.029 | inactive: -0.005 | inactive: 0.035 | inactive: -0.002 | inactive: -0.092 | inactive: 0.014 | inactive: 0.039 | inactive: -0.047
